Measurements taken from the supplement of paper PMC4604168 (melanoma cell lines).
Some of the results follow. Single values are uncertain, as repeats are few or missing.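 Cells were imaged in 1,536-well plates, and nuclei stained with an antibody against cleaved PARP were counted against all DNA-stained nuclei to give the apoptosis fraction. Screening doses were chosen to leave most cells alive, and resting and induced cleaved-PARP levels differ strongly between cell lines.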

System: A101D
Assay: cleaved PARP positive nuclei fraction relative to DMSO control; melanoma cells; higher = more apoptosis
Settings: library dose: low library concentration; 72 h

Structure (SMILES)	cleaved PARP positive nuclei fraction [%]
CCCCCCCCCCCCCCCCCCOP(=O)([O-])OC1CC[N+](C)(C)CC1 [Perifosine] + C[As](C)SC[C@H](NC(=O)CC[C@H](N)C(=O)O)C(=O)NCC(=O)O [Darinaparsin] (first compound 0.4 µM, partner dose 0.4 µM)	90.5
CC(=O)O[C@@]12CO[C@@H]1C[C@H](O)[C@@]1(C)C(=O)[C@H](O)C3=C(C)[C@@H](OC(=O)[C@H](O)[C@@H](NC(=O)OC(C)(C)C)c4ccccc4)C[C@@](O)([C@@H](OC(=O)c4ccccc4)[C@H]21)C3(C)C [Docetaxel] + N.N.[Cl][Pt][Cl] [cisplatin] (first compound 0.0001 µM, partner dose 1.6 µM)	66.1
N.N.[Cl][Pt][Cl] [cisplatin] + C#Cc1cccc(Nc2ncnc3cc(OCCOC)c(OCCOC)cc23)c1 [erlotinib] (first compound 1.6 µM, partner dose 0.8 µM)	112
C[As](C)SC[C@H](NC(=O)CC[C@H](N)C(=O)O)C(=O)NCC(=O)O [Darinaparsin] + Cc1nc(Nc2ncc(C(=O)Nc3c(C)cccc3Cl)s2)cc(N2CCN(CCO)CC2)n1 [dasatanib] (first compound 0.4 µM, partner dose 0.004 µM)	85
Cn1sc(=O)n(Cc2ccccc2)c1=O + C[As](C)SC[C@H](NC(=O)CC[C@H](N)C(=O)O)C(=O)NCC(=O)O [Darinaparsin] (first compound 0.4 µM, partner dose 0.4 µM)	184
C[C@]12O[C@H](C[C@]1(O)CO)n1c3ccccc3c3c4c(c5c6ccccc6n2c5c31)CNC4=O [Lestaurtinib] + C[C@]1(c2nc3c(C(N)=O)cccc3[nH]2)CCCN1 [Veliparib] (first compound 0.004 µM, partner dose 1.4 µM)	135
Cn1cc(C2=C(c3cn(C4CCN(Cc5ccccn5)CC4)c4ccccc34)C(=O)NC2=O)c2ccccc21 [Enzastaurin] + CN1CCN(c2ccc3nc(-c4c(N)c5c(F)cccc5[nH]c4=O)[nH]c3c2)CC1 [Dovitinib] (first compound 0.8 µM, partner dose 0.1 µM)	51.5
CCCCCCCCc1ccc(CCC(N)(CO)CO)cc1 [fingolimod] + N.N.[Cl][Pt][Cl] [cisplatin] (first compound 2 µM, partner dose 1.6 µM)	107
Cn1cc(C2=C(c3cn(C4CCN(Cc5ccccn5)CC4)c4ccccc34)C(=O)NC2=O)c2ccccc21 [Enzastaurin] + CCCS(=O)(=O)Nc1ccc(F)c(C(=O)c2c[nH]c3ncc(Cl)cc23)c1F [PLX4720] (first compound 0.8 µM, partner dose 0.08 µM)	92
CC1(C)CCC(c2ccc(Cl)cc2)=C(CN2CCN(c3ccc(C(=O)NS(=O)(=O)c4ccc(N[C@H](CCN5CCOCC5)CSc5ccccc5)c(S(=O)(=O)C(F)(F)F)c4)cc3)CC2)C1 + N.N.[Cl][Pt][Cl] [cisplatin] (first compound 0.4 µM, partner dose 1.6 µM)	317
Cn1cc(C2=C(c3cn(C4CCN(Cc5ccccn5)CC4)c4ccccc34)C(=O)NC2=O)c2ccccc21 [Enzastaurin] + Nc1ccn([C@@H]2O[C@H](CO)[C@@H](O)C2(F)F)c(=O)n1 [gemcitabine] (first compound 0.8 µM, partner dose 0.0004 µM)	86.6
N.N.[Cl][Pt][Cl] [cisplatin] + Nc1ncn([C@H]2C[C@H](O)[C@@H](CO)O2)c(=O)n1 [decitabine] (first compound 1.6 µM, partner dose 0.1 µM)	52.4
Cn1sc(=O)n(Cc2ccccc2)c1=O + C[C@]12O[C@H](C[C@]1(O)CO)n1c3ccccc3c3c4c(c5c6ccccc6n2c5c31)CNC4=O [Lestaurtinib] (first compound 0.4 µM, partner dose 0.004 µM)	43.3
Cn1cc(C2=C(c3cn(C4CCN(Cc5ccccn5)CC4)c4ccccc34)C(=O)NC2=O)c2ccccc21 [Enzastaurin] + COCC[n+]1c2c(n(Cc3cnccn3)c1C)C(=O)c1ccccc1C2=O [YM155] (first compound 0.8 µM, partner dose 0.0004 µM)	57.9
C[C@]1(O)C[C@@H](c2nc(-c3ccc4ccc(-c5ccccc5)nc4c3)c3c(N)nccn32)C1 + N.N.[Cl][Pt][Cl] [cisplatin] (first compound 0.4 µM, partner dose 1.6 µM)	94.6
C[C@]12O[C@H](C[C@]1(O)CO)n1c3ccccc3c3c4c(c5c6ccccc6n2c5c31)CNC4=O [Lestaurtinib] + CC(C)C[C@H](NC(=O)[C@H](Cc1ccccc1)NC(=O)c1cnccn1)B(O)O [Bortezomib] (first compound 0.004 µM, partner dose 0.001 µM)	745
COc1ccc(C2=N[C@@H](c3ccc(Cl)cc3)[C@@H](c3ccc(Cl)cc3)N2C(=O)N2CCNC(=O)C2)c(OC(C)C)c1 [Nutlin-3] + C[C@]12O[C@H](C[C@]1(O)CO)n1c3ccccc3c3c4c(c5c6ccccc6n2c5c31)CNC4=O [Lestaurtinib] (first compound 0.1 µM, partner dose 0.004 µM)	197
C=CCNC1=C2C[C@@H](C)C[C@H](OC)[C@H](O)[C@@H](C)/C=C(\C)[C@H](OC(N)=O)[C@@H](OC)/C=C\C=C(/C)C(=O)NC(=CC1=O)C2=O [Tanespimycin] + C[As](C)SC[C@H](NC(=O)CC[C@H](N)C(=O)O)C(=O)NCC(=O)O [Darinaparsin] (first compound 0.002 µM, partner dose 0.4 µM)	48.9
COc1ccc(C2=N[C@@H](c3ccc(Cl)cc3)[C@@H](c3ccc(Cl)cc3)N2C(=O)N2CCNC(=O)C2)c(OC(C)C)c1 [Nutlin-3] + C[As](C)SC[C@H](NC(=O)CC[C@H](N)C(=O)O)C(=O)NCC(=O)O [Darinaparsin] (first compound 0.1 µM, partner dose 0.4 µM)	44.5
Cn1cc(C2=C(c3cn(C4CCN(Cc5ccccn5)CC4)c4ccccc34)C(=O)NC2=O)c2ccccc21 [Enzastaurin] + CNC(=O)c1cc(Oc2ccc(NC(=O)Nc3ccc(Cl)c(C(F)(F)F)c3)cc2)ccn1 [sorafenib] (first compound 0.8 µM, partner dose 0.4 µM)	94.4
C[C@]12O[C@H](C[C@]1(O)CO)n1c3ccccc3c3c4c(c5c6ccccc6n2c5c31)CNC4=O [Lestaurtinib] + CO[C@H]1C[C@@H]2CC[C@@H](C)[C@@](O)(O2)C(=O)C(=O)N2CCCC[C@H]2C(=O)O[C@H]([C@H](C)C[C@@H]2CC[C@@H](OCCO)[C@H](OC)C2)CC(=O)[C@H](C)/C=C(\C)[C@@H](O)[C@@H](OC)C(=O)[C@H](C)C[C@H](C)/C=C/C=C/C=C/1C [everolimus] (first compound 0.004 µM, partner dose 0.02 µM)	30.6
N.N.[Cl][Pt][Cl] [cisplatin] + Cn1c(Nc2ccc(C(F)(F)F)cc2)nc2cc(Oc3ccnc(-c4ncc(C(F)(F)F)[nH]4)c3)ccc21 [CHIR265] (first compound 1.6 µM, partner dose 0.08 µM)	62.1
C[C@]12O[C@H](C[C@]1(O)CO)n1c3ccccc3c3c4c(c5c6ccccc6n2c5c31)CNC4=O [Lestaurtinib] + C=C(c1ccc(C(=O)O)cc1)c1cc2c(cc1C)C(C)(C)CCC2(C)C [Bexarotene] (first compound 0.004 µM, partner dose 2 µM)	51
N.N.[Cl][Pt][Cl] [cisplatin] + CO[C@H]1C[C@@H]2CC[C@@H](C)[C@@](O)(O2)C(=O)C(=O)N2CCCC[C@H]2C(=O)O[C@H]([C@H](C)C[C@@H]2CC[C@@H](OCCO)[C@H](OC)C2)CC(=O)[C@H](C)/C=C(\C)[C@@H](O)[C@@H](OC)C(=O)[C@H](C)C[C@H](C)/C=C/C=C/C=C/1C [everolimus] (first compound 1.6 µM, partner dose 0.02 µM)	109
COc1ccc(C2=N[C@@H](c3ccc(Cl)cc3)[C@@H](c3ccc(Cl)cc3)N2C(=O)N2CCNC(=O)C2)c(OC(C)C)c1 [Nutlin-3] + N.N.[Cl][Pt][Cl] [cisplatin] (first compound 0.1 µM, partner dose 1.6 µM)	258
Cn1sc(=O)n(Cc2ccccc2)c1=O + N.N.[Cl][Pt][Cl] [cisplatin] (first compound 0.4 µM, partner dose 1.6 µM)	60.3
Cn1cc(C2=C(c3cn(C4CCN(Cc5ccccn5)CC4)c4ccccc34)C(=O)NC2=O)c2ccccc21 [Enzastaurin] + CN(c1ncccc1CNc1nc(Nc2ccc3c(c2)CC(=O)N3)ncc1C(F)(F)F)S(C)(=O)=O [PF562271] (first compound 0.8 µM, partner dose 0.08 µM)	53.1
C[C@]12O[C@H](C[C@]1(O)CO)n1c3ccccc3c3c4c(c5c6ccccc6n2c5c31)CNC4=O [Lestaurtinib] + CCCS(=O)(=O)Nc1ccc(F)c(C(=O)c2c[nH]c3ncc(Cl)cc23)c1F [PLX4720] (first compound 0.004 µM, partner dose 0.08 µM)	123
C[C@]12O[C@H](C[C@]1(O)CO)n1c3ccccc3c3c4c(c5c6ccccc6n2c5c31)CNC4=O [Lestaurtinib] + COc1ccc(Cl)c(Nc2nc3ccccc3nc2NS(=O)(=O)c2cccc(NC(=O)C(C)(C)N)c2)c1 [XL147] (first compound 0.004 µM, partner dose 0.8 µM)	48.1

An excerpt from the list above, as a working copy:
Structure (SMILES)	cleaved PARP positive nuclei fraction [%]
Cn1cc(C2=C(c3cn(C4CCN(Cc5ccccn5)CC4)c4ccccc34)C(=O)NC2=O)c2ccccc21 [Enzastaurin] + Nc1ccn([C@@H]2O[C@H](CO)[C@@H](O)C2(F)F)c(=O)n1 [gemcitabine] (first compound 0.8 µM, partner dose 0.0004 µM)	86.6
N.N.[Cl][Pt][Cl] [cisplatin] + Nc1ncn([C@H]2C[C@H](O)[C@@H](CO)O2)c(=O)n1 [decitabine] (first compound 1.6 µM, partner dose 0.1 µM)	52.4
